Experimental data from US6365178B1, “Method of making pressure sensitive adhesive matrix patches for transdermal drug delivery using hydrophilic salts of drugs and hydrophobic pressure sensitive adhesive dispersions” (priority 1996, dated 2002).
Structures can show the parent of a compound that is named as a salt.

Test: Dissolution of drug substance in liquid adhesive or solvent during matrix preparation
Type: physicochemical
Conditions: Example 9, DURO-TAK 2516, equivalent to 1% (w/w) HCl salt
Method: Pressure sensitive adhesive matrix systems described herein were prepared as follows. First, the solids content of a water-based or solvent-based adhesive in liquid form was determined by placing a known weight of liquid in a weighed aluminum dish and evaporating the solvents overnight in a 70° C. convection oven. The content of solid adhesive in the liquid was calculated by dividing the adhesive solid weight after drying by the initial total liquid weight. In some cases, the polyisobutylene (PIB) adhesives were prepared from polyisobutylene solids. […] Next, a weighed quantity of adhesive liquid was added to a glass bottle, and the solid adhesive weight was calculated from the known solid fraction of the given adhesive liquid. The drug substance (hydrophilic salt or free drug form) was weighed and added to the adhesive solution in a quantity necessary to achieve a selected dry matrix film composition. The liquid containing the adhesive polymer drug substance was then mixed overnight. […] The cast was dried in a 70° C. convection oven for 15-30 minutes to yield a dried matrix onto which an 0.08 mm thick polyethylene backing film was laminated. These matrix systems were then used to conduct in vitro skin flux experiments as described below.

SMILES | Dissolution in organic solvent-based adhesive (HCl) | Dissolution in organic solvent-based adhesive
CCN(CC)CC(=O)Nc1c(C)cccc1C [lidocaine HCl] | did not dissolve completely | –
CCN(CC)CC(=O)Nc1c(C)cccc1C [lidocaine free base, lidocaine] | – | dissolved easily
